The assay has as its system BDF1 mice, P388 leukemia ip, median survival T/C. The assay can be described thus: NCI In Vivo Anticancer Drug Screen. Data for tumor model P388 Leukemia (intraperitoneal) in B6D2F1 (BDF1) mice. The note with it: T/C endpoint: median survival time, higher T/C = longer survival. A digest of the protocol: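 Each value expresses how treatment altered survival: treated-mouse outcome over vehicle-mouse outcome, both groups bearing the transplanted tumour.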

Setting [1] is: dose: 1.5 mg/kg/injection, schedule: Q01DX009 (ip), vehicle: Klucel (hydroxypropylcellulose) (HPC).
[2] abbreviates: dose: 3.0 mg/kg/injection, schedule: Q01DX009 (ip), vehicle: Klucel (hydroxypropylcellulose) (HPC).
Where [3] appears, read: dose: 6.0 mg/kg/injection, schedule: Q01DX009 (ip), vehicle: Klucel (hydroxypropylcellulose) (HPC).
[4] abbreviates: dose: 25.0 mg/kg/injection, schedule: Q04DX003 (ip), vehicle: Klucel (hydroxypropylcellulose) (HPC).
The mark [5] stands for this setting: dose: 50.0 mg/kg/injection, schedule: Q04DX003 (ip), vehicle: Klucel (hydroxypropylcellulose) (HPC).
[6] abbreviates: dose: 12.5 mg/kg/injection, schedule: Q01DX009 (ip), vehicle: saline with Tween-80.
Setting [7] is: dose: 25.0 mg/kg/injection, schedule: Q01DX009 (ip), vehicle: saline with Tween-80.
[8] abbreviates: dose: 50.0 mg/kg/injection, schedule: Q01DX009 (ip), vehicle: saline with Tween-80.
Setting [9] is: dose: 100.0 mg/kg/injection, schedule: Q01DX009 (ip), vehicle: saline with Tween-80.
Setting [10] is: dose: 100.0 mg/kg/injection, schedule: Q04DX003 (ip), vehicle: saline with Tween-80.
[11] abbreviates: dose: 200.0 mg/kg/injection, schedule: Q04DX003 (ip), vehicle: saline with Tween-80.
[12] abbreviates: dose: 50.0 mg/kg/injection, schedule: Q04DX003 (ip), vehicle: saline with Tween-80.
Setting [13] is: dose: 1.0 mg/kg/injection, schedule: Q01DX009 (ip), vehicle: saline.
The mark [14] stands for this setting: dose: 1.5 mg/kg/injection, schedule: Q01DX009 (ip), vehicle: saline.
[15] abbreviates: dose: 2.25 mg/kg/injection, schedule: Q01DX009 (ip), vehicle: saline.

The list does not hold the whole screen: it covers a few groups of compounds. Other doses and runs of a compound may be missing. T/C gives the treated animals as a percentage of the vehicle group. Some entries give survivors of the animals treated and no T/C: the source holds a T/C of zero for them, seemingly a mark for toxic or unscored doses. Some survivor counts are full or nearly so, which does not show that the dose was tolerated: survival well below the control is almost never listed, so the zero probably covers shortened survival too. Survivors were counted at the toxicity check, usually on the fifth day, unless a day is given; later deaths do not show. Schedules are NCI's codes, taken here to give the interval after Q, in days (D) or hours (H), and the number of doses after X. Where survival is the endpoint, the PubChem record calls one and a half times the control and up active, and a quarter to a half above the control has no call in these data; cut-offs in other NCI protocols can differ. Some entries were tested several times; the values are given in rising order.

As to `O=[N+]([O-])c1cc([N+](=O)[O-])c(/C=C/c2ccccc2)c([N+](=O)[O-])c1`, the T/C under setting [1] was 100 % of control; the T/C under setting [2] is 87 % of control; the T/C under setting [3] is 87 % of control; the T/C (dose: 12.0 mg/kg/injection, schedule: Q01DX009 (ip), vehicle: Klucel (hydroxypropylcellulose) (HPC)) is 87 % of control; the T/C (dose: 25.0 mg/kg/injection, schedule: Q01DX009 (ip), vehicle: Klucel (hydroxypropylcellulose) (HPC)) was 87 and 89 % of control; the T/C under setting [4] was 95 % of control. Moreover, under setting [5], the T/C was 95 % of control. Also, the survivor count runs as follows: under setting [3], 6 of 6; (dose: 50.0 mg/kg/injection, schedule: Q01DX009 (ip), vehicle: Klucel (hydroxypropylcellulose) (HPC)) 6 of 6; (dose: 100.0 mg/kg/injection, schedule: Q01DX009 (ip), vehicle: Klucel (hydroxypropylcellulose) (HPC)) 6 of 6; (dose: 100.0 mg/kg/injection, schedule: Q04DX003 (ip), vehicle: Klucel (hydroxypropylcellulose) (HPC)) 6 of 6.
As for `CN(/N=C\c1ccc(N(CCBr)CCBr)cc1)C(=N)N`, the T/C by setting is: (dose: 0.2 mg/kg/injection, schedule: Q04DX003 (ip), vehicle: Klucel (hydroxypropylcellulose) (HPC)) 100 % of control; (dose: 0.3 mg/kg/injection, schedule: Q04DX003 (ip), vehicle: Klucel (hydroxypropylcellulose) (HPC)) 100 % of control; (dose: 0.5 mg/kg/injection, schedule: Q04DX003 (ip), vehicle: Klucel (hydroxypropylcellulose) (HPC)) 111 and 145 % of control; (dose: 0.8 mg/kg/injection, schedule: Q04DX003 (ip), vehicle: Klucel (hydroxypropylcellulose) (HPC)) 141 % of control; (dose: 1.3 mg/kg/injection, schedule: Q04DX003 (ip), vehicle: Klucel (hydroxypropylcellulose) (HPC)) 136 and 158 % of control; under setting [1], 126 % of control. Moreover, the T/C (dose: 2.0 mg/kg/injection, schedule: Q04DX003 (ip), vehicle: Klucel (hydroxypropylcellulose) (HPC)) was 136 % of control; the T/C under setting [2] was 161 % of control; the T/C (dose: 3.0 mg/kg/injection, schedule: Q04DX003 (ip), vehicle: Klucel (hydroxypropylcellulose) (HPC)) is 136 % of control; the T/C (dose: 4.5 mg/kg/injection, schedule: Q04DX003 (ip), vehicle: Klucel (hydroxypropylcellulose) (HPC)) was 153 % of control; the T/C under setting [3] was 188 % of control; the T/C (dose: 7.0 mg/kg/injection, schedule: Q04DX003 (ip), vehicle: Klucel (hydroxypropylcellulose) (HPC)) is 165 % of control. Moreover, the T/C reads like this: (dose: 11.0 mg/kg/injection, schedule: Q04DX003 (ip), vehicle: Klucel (hydroxypropylcellulose) (HPC)) 188 % of control; (dose: 12.5 mg/kg/injection, schedule: Q04DX003 (ip), vehicle: Klucel (hydroxypropylcellulose) (HPC)) 144 % of control; (dose: 16.5 mg/kg/injection, schedule: Q04DX003 (ip), vehicle: Klucel (hydroxypropylcellulose) (HPC)) 154 and 173 % of control; under setting [4], 108 and 168 % of control; under setting [5], 104 % of control. Also, the survivor count (dose: 37.5 mg/kg/injection, schedule: Q04DX003 (ip), vehicle: Klucel (hydroxypropylcellulose) (HPC)) is reported as 6 of 6.
As for `O=[N+]([O-])c1cccc2nn([N+](=O)[O-])cc12`, the T/C was 115 % of control (dose: 6.25 mg/kg/injection, schedule: Q01DX009 (ip), vehicle: saline with Tween-80) and 119 % of control under setting [6]. Also, the survivor count under setting [7] is on record as 3 of 6; the survivor count under setting [8] is recorded as 2 of 6; the survivor count under setting [9] is reported as 0 of 6; the survivor count (dose: 200.0 mg/kg/injection, schedule: Q01DX009 (ip), vehicle: saline with Tween-80) is reported as 0 of 6.
In the case of `CCCCOP(OCCCC)OCCCC`, the T/C reads like this: under setting [10], 104 % of control; under setting [11], 100 % of control; (dose: 400.0 mg/kg/injection, schedule: Q04DX003 (ip), vehicle: saline with Tween-80) 100 % of control.
Regarding `O=C(O)c1cc([N+](=O)[O-])cc([N+](=O)[O-])c1-c1c(C(=O)O)cc([N+](=O)[O-])cc1[N+](=O)[O-]`, the T/C is 93 % of control (dose: 100.0 mg/kg/injection, schedule: Q04DX002 (ip), vehicle: saline + alcohol); 95 % of control (dose: 200.0 mg/kg/injection, schedule: Q04DX002 (ip), vehicle: saline + alcohol); 93 % of control (dose: 400.0 mg/kg/injection, schedule: Q04DX002 (ip), vehicle: saline + alcohol).
For `CCCCC(CC)CO[P+](=O)OCC(CC)CCCC` (stereo not given), the T/C under setting [7] is 100 % of control; the T/C under setting [8] is 113 % of control; the T/C under setting [12] is 100 % of control; the T/C under setting [9] is 104 % of control; the T/C under setting [10] is 104 % of control; the T/C under setting [11] was 104 % of control.
Turning to `OCCF`, the T/C runs as follows: (dose: 0.75 mg/kg/injection, schedule: Q01DX009 (ip), vehicle: saline) 115 % of control; under setting [13], 105 % of control; under setting [14], 110 and 150 % of control; (dose: 1.5 mg/kg/injection, schedule: Q04DX003 (ip), vehicle: saline) 118 % of control; under setting [15], 115 % of control; (dose: 3.0 mg/kg/injection, schedule: Q04DX003 (ip), vehicle: saline) 118 % of control. Besides, the survivor count is, setting by setting: under setting [13], 1 of 6; under setting [14], 1 of 6; under setting [15], 0 of 6; (dose: 3.0 mg/kg/injection, schedule: Q01DX009 (ip), vehicle: saline) 0 of 6; (dose: 6.0 mg/kg/injection, schedule: Q04DX003 (ip), vehicle: saline) 3 of 6.
Consider `Cc1nccn1P(=O)(Oc1ccccc1)OC1CC(C)(C)N(O)C(C)(C)C1` (stereo not given), for which the T/C is 97 % of control (dose: 50.0 mg/kg/injection, schedule: Q01DX009 (ip), vehicle: saline + alcohol); 100 % of control (dose: 100.0 mg/kg/injection, schedule: Q01DX009 (ip), vehicle: saline + alcohol); 101 % of control (dose: 200.0 mg/kg/injection, schedule: Q01DX009 (ip), vehicle: saline + alcohol).
In the case of `ClCCN(CCCl)B1SCCCS1`, the T/C by setting is: under setting [6], 127 % of control; under setting [7], 200 % of control; under setting [8], 200 % of control; under setting [12], 209 % of control.

These data come from PubChem BioAssay AID328 (DTP/NCI, 2004).
